# Results reported in the supplement of paper PMC3334620.
# In all, about 33,000 sequences were measured (“E-score (-0.5 to 0.5)”: median about -8e-05, highest 2% from about 0.23 on). The list shows a part of the results.
# Target: T1, Nrg2 (UniProt P38082)
# T1 sequence: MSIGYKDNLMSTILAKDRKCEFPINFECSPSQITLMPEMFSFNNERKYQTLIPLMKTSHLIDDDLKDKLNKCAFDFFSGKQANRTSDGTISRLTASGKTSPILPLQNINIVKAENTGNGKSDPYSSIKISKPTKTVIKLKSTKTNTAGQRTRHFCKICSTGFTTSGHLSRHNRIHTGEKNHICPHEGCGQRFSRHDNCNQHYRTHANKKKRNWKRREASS
# Experiment: PBM E-score (8-mer binding enrichment) (E-score (-0.5 to 0.5)); higher = stronger / more preferred TF binding
# Details: protein concentration: 100 nM; construct: GST-full length
# Outline: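 E-scores (a modified Wilcoxon-Mann-Whitney statistic) were assigned by the Universal PBM Analysis Suite to every ungapped eight-base word pooled with its reverse complement. The input came from universal all-10-mer Agilent arrays made double-stranded by primer extension and probed with GST-tagged yeast transcription factors at about 100-200 nM. Fluorescent anti-GST detected bound protein, and masliner normalised the scans.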
row,Sequence,PBM E-score
1,CACGTGGG,-0.138
2,AGAAAATA,0.0846
3,TTAAGAAA,-0.108
4,AAAAATAA,0.132
5,GCTCAAGC,-0.0931
6,GGCCCATA,0.0977
7,ACCGCGAC,0.0348
8,CCGTAGAA,-0.225
9,GGACGCTA,-0.163
10,AAGCTTGC,-0.12
11,AGTCACGC,-0.17
12,CCGATCGA,-0.164
13,ATACGGAA,0.136
14,CTAGATAG,-0.0285
15,ACCTGCCT,-0.0389
16,GATAGAAA,0.0506
17,TCCCAGGA,-0.18
18,GAATTCCA,0.188
19,AAATCTTC,-0.042
20,AGAGAACC,-0.0525
21,CCTAAGAG,0.127
22,ACTTGGGC,-0.083
23,TGGCCCCA,-0.0392
24,AGAGAACA,-0.0332
25,ACATAGCC,0.12

# Retrieved one by one from the list above, two records:
row,Sequence,PBM E-score
13,ATACGGAA,0.136
14,CTAGATAG,-0.0285

# Later entries

row,Sequence,PBM E-score
1,CCCGCTGA,-0.056
2,ATTCCCGC,0.194
3,CCCTATTC,0.0448
4,AGGAGCCG,-0.142
5,AGGCAGAG,-0.152
6,ATCTTTTC,0.0439
7,TGTGGAAA,0.148
8,GGTGGTCA,0.0257
9,ACTCCACC,-0.0649
10,AACTATTC,-0.00543
11,AGTTATTG,0.174
12,CACCTCGC,-0.0297
13,CAAGCGTA,-0.121
14,CCCTGCAA,0.162
15,CTTAACAC,0.0347
16,AAGCCCTA,-0.167
17,ACGGGAGT,0.0417
18,CCCATAGG,0.0142
19,CACATTCC,-0.0582
20,GTATCAAA,0.148
21,CCTTGGCA,-0.0654
22,ACGGTTGC,-0.0353
23,ACTTAAAA,-0.122
24,ATGCGCGC,0.23
25,GTTATCGA,0.0283

row,Sequence,PBM E-score
1,CGGCTATC,-0.0729
2,CTGGCCAA,0.0814
3,AAGGGGCC,0.0155
4,GTTACCTA,0.0439
5,CAGGCTAA,-0.0857
6,CGAAAACA,0.0723
7,AGATCCGA,0.00014
8,CGAGAGCA,0.0136
9,ATTTCCGC,0.16
10,CTTGAAAA,-0.0288
11,AACCGGTC,-0.0894
12,AGACCGGA,-0.0154
13,ATCCCCTA,0.0411
14,AATTTCCC,0.205
15,AGCACAAG,-0.217
16,ACGCTCAA,0.0169
17,CGCGCCCG,-0.175
18,CGCCGCAC,-0.00336
19,CGACTGTC,-0.0486
20,AAGCCTGT,0.131
21,CGCAAATC,-0.0654
22,CTGCCACA,-0.117
23,GCGAGCAA,0.0895
24,CTCTAAAC,-0.0249
25,AACTCTAA,0.023

row,Sequence,PBM E-score
1,GGATGATA,0.0223
2,CTGGCCAG,0.0704
3,GCTCTCTA,-0.0388
4,ATGCGATG,0.0457
5,GCGTAAAA,0.0801
6,ACGAGATG,0.0596
7,CGTTGAAA,-0.0581
8,CTTTTAGC,-0.0898
9,TCACCAAA,0.131
10,CCACTGAA,0.0366
11,AGCCGACC,-0.26
12,CATTAGCC,-0.0571
13,AGAGGGAA,-0.283
14,CCGCAACC,0.0364
15,AATCGTTG,0.102
16,CGGCAGAG,-0.118
17,AAGTCATG,0.053
18,ACACATTC,-0.0249
19,AAATGAGA,0.00107
20,CACTGAGA,-0.162
21,AGCGCGTA,0.18
22,GCGGACGA,-0.0348
23,ACCTGAAG,-0.117
24,AAATAGGT,0.0575
25,AGTAAACT,0.0528

row,Sequence,PBM E-score
1,TAAATTGA,0.128
2,ATCCCGAA,0.191
3,AGAGCATG,-0.0876
4,AATGTTCT,-0.0628
5,CTACTAAG,0.0704
6,GTAGTCTA,-0.118
7,CGGTACTA,-0.163
8,TGCATACA,0.147
9,GATATAAA,0.0967
10,GATTATGC,0.162
11,ACGGCAAC,0.0905
12,CCCGAGCG,-0.0411
13,AAGAACCT,0.0278
14,CTATGTCA,-0.0385
15,ACTATTGG,-0.144
16,CCTAATGA,-0.00353
17,CGTTGAGA,-0.0119
18,ACAACTTG,0.129
19,AGGCTTTC,-0.0102
20,ACCCTTGC,0.268
21,ACACCACA,0.103
22,CTAACGTA,0.0221
23,GGTATCTA,0.00237
24,GTAATTAA,0.0301
25,AGAGTGAC,-0.229

# Single entries from the entries so far.
# Entry for CCCTGCAA under PBM E-score: 0.162
# Entry for CTGCCACA under PBM E-score: -0.117
# Entry for GTTACCTA under PBM E-score: 0.0439
# Entry for TGGCCCCA under PBM E-score: -0.0392
# Entry for ATCCCGAA under PBM E-score: 0.191

# Additional entries:

row,Sequence,PBM E-score
1,TCATATGA,0.21
2,ACGCTCTC,-0.0676
3,GGAAACGA,0.0585
4,AAGCAGCC,-0.116
5,AGAATTAA,-0.0858
6,TCCGCCGA,0.102
7,AACCGGTT,0.0107
8,AATGCCAT,0.0483
9,CAGGTCAG,0.123
10,GCAGGTCA,0.0617
11,AACCGGGT,0.00463
12,ACACAGAA,0.184
13,CCGGGCCG,-0.181
14,TATCCAGA,0.00794
15,AACAGAAC,0.0721
16,TAGAAGGA,-0.244
17,AGGCTCTG,-0.178
18,CACCTTAC,-0.098
19,ATAGCGTG,0.111
20,ATTGATTC,0.244
21,ACACATGA,0.0556
22,ACCGTCTG,-0.249
23,AGGATAGC,0.00991
24,AAATGGTG,-0.00957
25,TCAACTGA,0.124

row,Sequence,PBM E-score
1,CCCCGGCA,-0.125
2,AGGCATAG,0.0209
3,CATTACAG,0.0344
4,TCGTAGAA,-0.0839
5,ATAGGTGC,0.0698
6,CGAGATAA,0.226
7,CGGGTTAA,0.0877
8,CGCCATCA,-0.155
9,GGGGTGTA,-0.121
10,CATGACGG,0.125
11,AGCACCTA,-0.201
12,AACGCACC,-0.0612
13,ACTGTATC,-0.0153
14,ATACAGTC,-0.227
15,ATCTTCGC,0.194
16,GGAAATAA,0.214
17,AAAAGGGG,-0.0401
18,ATGGAATG,-0.0148
19,CGGTCCCA,-0.17
20,CCGGCGAA,0.0927
21,AGTAAGTA,0.154
22,ACCCTGTC,0.201
